Assay results taken from paper PMC11847914.
No constants are given. Whether binding was seen depends on the method and setting. In cells and extracts the contact can be indirect. Some entries that bind do so weakly or less than the wild type.

Protein sequences, listed by entry. Tags and fused reporters are not part of them.
UniProt O95931: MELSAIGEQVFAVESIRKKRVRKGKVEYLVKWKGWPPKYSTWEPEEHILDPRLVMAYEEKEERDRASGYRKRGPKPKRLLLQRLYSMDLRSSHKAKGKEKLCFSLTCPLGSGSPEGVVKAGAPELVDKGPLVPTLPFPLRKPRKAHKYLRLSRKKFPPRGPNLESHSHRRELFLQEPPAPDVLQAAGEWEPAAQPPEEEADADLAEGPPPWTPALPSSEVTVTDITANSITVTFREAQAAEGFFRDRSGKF
UniProt P35579: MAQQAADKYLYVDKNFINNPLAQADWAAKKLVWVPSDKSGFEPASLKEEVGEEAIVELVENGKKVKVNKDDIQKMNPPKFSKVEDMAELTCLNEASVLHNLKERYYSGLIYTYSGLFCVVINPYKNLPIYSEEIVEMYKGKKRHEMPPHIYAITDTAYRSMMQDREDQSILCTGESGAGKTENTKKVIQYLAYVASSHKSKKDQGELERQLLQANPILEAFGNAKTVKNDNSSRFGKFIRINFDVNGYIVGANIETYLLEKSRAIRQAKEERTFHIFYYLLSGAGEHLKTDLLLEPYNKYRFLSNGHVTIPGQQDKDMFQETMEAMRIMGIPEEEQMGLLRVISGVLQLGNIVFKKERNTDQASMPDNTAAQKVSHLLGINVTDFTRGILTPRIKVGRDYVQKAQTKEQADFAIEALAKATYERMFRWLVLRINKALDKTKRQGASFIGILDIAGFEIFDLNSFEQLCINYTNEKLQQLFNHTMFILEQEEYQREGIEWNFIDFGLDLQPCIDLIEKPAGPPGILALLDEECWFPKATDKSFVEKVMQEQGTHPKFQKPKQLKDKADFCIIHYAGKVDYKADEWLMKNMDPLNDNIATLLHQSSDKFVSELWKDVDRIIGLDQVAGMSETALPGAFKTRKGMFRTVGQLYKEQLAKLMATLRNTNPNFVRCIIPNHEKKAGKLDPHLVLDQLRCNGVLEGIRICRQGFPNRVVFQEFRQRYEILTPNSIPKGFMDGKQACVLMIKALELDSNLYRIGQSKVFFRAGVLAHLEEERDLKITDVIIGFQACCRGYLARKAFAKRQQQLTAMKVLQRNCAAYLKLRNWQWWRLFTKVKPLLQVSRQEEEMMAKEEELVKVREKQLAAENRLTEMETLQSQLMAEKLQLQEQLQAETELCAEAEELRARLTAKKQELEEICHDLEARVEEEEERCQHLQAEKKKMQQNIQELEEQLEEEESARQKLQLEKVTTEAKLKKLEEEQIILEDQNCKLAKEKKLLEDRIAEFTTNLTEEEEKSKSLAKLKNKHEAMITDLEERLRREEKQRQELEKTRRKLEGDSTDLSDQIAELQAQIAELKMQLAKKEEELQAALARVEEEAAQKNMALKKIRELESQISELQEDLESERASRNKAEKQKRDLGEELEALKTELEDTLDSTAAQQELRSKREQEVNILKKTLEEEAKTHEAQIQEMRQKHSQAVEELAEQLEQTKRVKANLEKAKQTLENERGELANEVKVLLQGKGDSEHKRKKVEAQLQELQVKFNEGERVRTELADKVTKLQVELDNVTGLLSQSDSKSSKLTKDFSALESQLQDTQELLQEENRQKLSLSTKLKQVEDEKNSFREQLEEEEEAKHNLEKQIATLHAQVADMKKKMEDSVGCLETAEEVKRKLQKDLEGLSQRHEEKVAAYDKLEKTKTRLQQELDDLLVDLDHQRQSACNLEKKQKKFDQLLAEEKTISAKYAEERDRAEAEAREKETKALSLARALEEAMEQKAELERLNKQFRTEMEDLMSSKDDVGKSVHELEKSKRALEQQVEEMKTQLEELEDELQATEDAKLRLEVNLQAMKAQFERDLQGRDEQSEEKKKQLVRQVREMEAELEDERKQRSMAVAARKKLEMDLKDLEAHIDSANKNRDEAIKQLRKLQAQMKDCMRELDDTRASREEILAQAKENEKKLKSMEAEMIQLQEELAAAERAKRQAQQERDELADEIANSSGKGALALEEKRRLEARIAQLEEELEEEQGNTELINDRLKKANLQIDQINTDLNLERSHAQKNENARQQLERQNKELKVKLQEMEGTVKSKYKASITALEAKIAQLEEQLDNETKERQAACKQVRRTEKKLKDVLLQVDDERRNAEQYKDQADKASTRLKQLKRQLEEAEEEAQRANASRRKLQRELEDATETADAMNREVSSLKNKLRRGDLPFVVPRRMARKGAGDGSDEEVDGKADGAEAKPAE

Key:
[1] = target: Flag-tagged Chromobox protein homolog 7 (CBX7), co-transfected with HA-MYH9 (human) (UniProt O95931); assay: co-IP; co-transfection of Flag-CBX7 and HA-MYH9 (293T cells by the text, U251 and LN229 by the legend); whole-cell lysates precipitated with anti-Flag or anti-HA antibodies and protein A/G microbeads, western blotting
[2] = target: Chromobox protein homolog 7 (CBX7), endogenous (human (endogenous in U251 and LN229)) (UniProt O95931); assay: co-IP; endogenous proteins in U251 and LN229 cells; IP with anti-CBX7 or anti-MYH9 antibodies, western blotting

binding [1] | binding [2] | Substance
binds |  | HA-tagged myosin heavy chain 9 (MYH9) (from UniProt P35579 1-1960)
 | binds | myosin heavy chain 9 (MYH9), endogenous (from UniProt P35579 1-1960)
